# Reference: patent publication US20250009709A1, “PRENYLATED CHALCONE AND FLAVONOID COMPOSITIONS FOR USE IN TREATING CANCER” (INNOX CORP., priority 2021, published 2025)
# At least one compound was matched to its structure with a doubt left.
# System: pCrkl
# Assay: pCrkl level in K562-DR1000 nM cells
# Format: cell-based
# Conditions: dasatinib treated cells, FIG. 7A
structure (smiles),measurement,value
Cc1nc(Nc2ncc(C(=O)Nc3c(C)cccc3Cl)s2)cc(N2CCN(CCO)CC2)n1 [dasatinib],pCrkl level,decreased
